Drawing on PMC7032568, this text covers binding for 1 molecule.

The target of this test is T1, YFP-tagged DDX11 (human) (UniProt Q96FC9).
T1 sequence: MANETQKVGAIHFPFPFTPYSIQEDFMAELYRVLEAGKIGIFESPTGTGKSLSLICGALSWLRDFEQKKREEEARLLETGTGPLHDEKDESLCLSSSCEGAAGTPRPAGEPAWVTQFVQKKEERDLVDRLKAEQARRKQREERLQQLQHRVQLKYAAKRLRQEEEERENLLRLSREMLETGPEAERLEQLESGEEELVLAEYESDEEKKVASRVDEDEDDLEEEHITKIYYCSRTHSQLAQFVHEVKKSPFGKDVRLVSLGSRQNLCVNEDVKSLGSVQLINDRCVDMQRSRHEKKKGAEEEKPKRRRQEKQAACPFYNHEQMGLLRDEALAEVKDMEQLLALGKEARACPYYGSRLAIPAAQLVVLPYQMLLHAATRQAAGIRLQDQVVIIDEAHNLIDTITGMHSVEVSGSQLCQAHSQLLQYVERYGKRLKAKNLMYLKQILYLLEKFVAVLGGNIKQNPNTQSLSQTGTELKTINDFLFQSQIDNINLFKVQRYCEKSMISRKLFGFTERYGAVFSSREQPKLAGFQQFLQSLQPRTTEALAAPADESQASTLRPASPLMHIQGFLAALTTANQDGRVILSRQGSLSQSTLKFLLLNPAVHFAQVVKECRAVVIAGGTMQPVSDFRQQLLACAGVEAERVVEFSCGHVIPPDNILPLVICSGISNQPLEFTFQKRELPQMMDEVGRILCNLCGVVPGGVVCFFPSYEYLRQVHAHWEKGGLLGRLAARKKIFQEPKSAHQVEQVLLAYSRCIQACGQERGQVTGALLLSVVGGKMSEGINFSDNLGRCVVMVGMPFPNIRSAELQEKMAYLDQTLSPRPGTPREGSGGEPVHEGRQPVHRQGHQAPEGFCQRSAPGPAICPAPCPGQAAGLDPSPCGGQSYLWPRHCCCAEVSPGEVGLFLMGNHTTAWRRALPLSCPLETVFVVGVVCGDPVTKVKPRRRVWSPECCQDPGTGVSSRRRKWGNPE
Put plainly: affinity purification with mass spectrometry; N-terminally YFP-tagged DDX11 captured on GFP-trap_A beads from HeLa Flp-In T-REx extracts, 2 h at 4°C; parental cells as control; eluted with 0.2 M glycine pH 2.5; LC-MS/MS.

These are yes or no findings as the source states them, for the method shown. In cells and extracts the contact can be indirect. Here binding means that the protein was enriched with, or labelled near, the bait; the list need not be complete. Sequences can lack the tags named with a protein.

B1: WDHD1 (endogenous) (protein, UniProt O75717 1-1129)
chain: MPATRKPMRYGHTEGHTEVCFDDSGSFIVTCGSDGDVRIWEDLDDDDPKFINVGEKAYSCALKSGKLVTAVSNNTIQVHTFPEGVPDGILTRFTTNANHVVFNGDGTKIAAGSSDFLVKIVDVMDSSQQKTFRGHDAPVLSLSFDPKDIFLASASCDGSVRVWQISDQTCAISWPLLQKCNDVINAKSICRLAWQPKSGKLLAIPVEKSVKLYRRESWSHQFDLSDNFISQTLNIVTWSPCGQYLAAGSINGLIIVWNVETKDCMERVKHEKGYAICGLAWHPTCGRISYTDAEGNLGLLENVCDPSGKTSSSKVSSRVEKDYNDLFDGDDMSNAGDFLNDNAVEIPSFSKGIINDDEDDEDLMMASGRPRQRSHILEDDENSVDISMLKTGSSLLKEEEEDGQEGSIHNLPLVTSQRPFYDGPMPTPRQKPFQSGSTPLHLTHRFMVWNSIGIIRCYNDEQDNAIDVEFHDTSIHHATHLSNTLNYTIADLSHEAILLACESTDELASKLHCLHFSSWDSSKEWIIDLPQNEDIEAICLGQGWAAAATSALLLRLFTIGGVQKEVFSLAGPVVSMAGHGEQLFIVYHRGTGFDGDQCLGVQLLELGKKKKQILHGDPLPLTRKSYLAWIGFSAEGTPCYVDSEGIVRMLNRGLGNTWTPICNTREHCKGKSDHYWVVGIHENPQQLRCIPCKGSRFPPTLPRPAVAILSFKLPYCQIATEKGQMEEQFWRSVIFHNHLDYLAKNGYEYEESTKNQATKEQQELLMKMLALSCKLEREFRCVELADLMTQNAVNLAIKYASRSRKLILAQKLSELAVEKAAELTATQVEEEEEEEDFRKKLNAGYSNTATEWSQPRFRNQVEEDAEDSGEADDEEKPEIHKPGQNSFSKSTNSSDVSAKSGAVTFSSQGRVNPFKVSASSKEPAMSMNSARSTNILDNMGKSSKKSTALSRTTNNEKSPIIKPLIPKPKPKQASAASYFQKRNSQTNKTEEVKEENLKNVLSETPAICPPQNTENQRPKTGFQMWLEENRSNILSDNPDFSDEADIIKEGMIRFRVLSTEERKVWANKAKGETASEGTEAKKRKRVVDESDETENQEEKAKENLNLSKKQKPLDFSTNQKLSAFAFKQE
Turning to B1, the binding result is “binds”.
